The text below walks through data of paper PMC11612400.

The chains behind the UniProt entries cited, without tags or fusion partners.
UniProt P67936: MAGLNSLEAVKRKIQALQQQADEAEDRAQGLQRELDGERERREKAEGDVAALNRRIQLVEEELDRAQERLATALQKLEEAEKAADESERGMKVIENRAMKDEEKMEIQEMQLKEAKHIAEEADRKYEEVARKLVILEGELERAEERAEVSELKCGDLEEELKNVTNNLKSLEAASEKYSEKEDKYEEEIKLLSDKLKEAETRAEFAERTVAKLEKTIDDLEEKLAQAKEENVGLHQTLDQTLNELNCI
UniProt P14618: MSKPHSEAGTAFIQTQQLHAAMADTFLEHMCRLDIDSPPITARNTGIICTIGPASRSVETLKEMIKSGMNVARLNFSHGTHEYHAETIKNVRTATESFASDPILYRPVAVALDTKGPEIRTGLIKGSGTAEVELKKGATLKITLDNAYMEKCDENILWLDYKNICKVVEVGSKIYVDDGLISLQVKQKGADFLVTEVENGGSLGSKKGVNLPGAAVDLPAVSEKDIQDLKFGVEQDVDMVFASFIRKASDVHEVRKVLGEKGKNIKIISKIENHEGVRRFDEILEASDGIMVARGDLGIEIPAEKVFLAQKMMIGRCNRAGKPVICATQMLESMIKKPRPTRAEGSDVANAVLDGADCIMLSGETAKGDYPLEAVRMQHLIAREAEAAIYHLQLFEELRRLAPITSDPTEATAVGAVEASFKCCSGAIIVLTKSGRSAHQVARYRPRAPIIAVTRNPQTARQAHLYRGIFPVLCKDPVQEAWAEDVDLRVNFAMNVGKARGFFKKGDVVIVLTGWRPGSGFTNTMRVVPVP

One assay concerns the target TPM4-GB (UniProt P67936). Description: fluorescent protein exchange (FPX); TPM4-GB, PFKM-GA and PKM2-RA expressed in MDA-MB-231 cells; green (GA/GB) and red (RA/GB) fluorescence imaged before (isosmotic) and after 100 mM sorbitol for 3 min.
The target of assay [1] is TPM4-AcGFP (tropomyosin 4 fused to AcGFP) (UniProt P67936). Description: proximity ligation; Duolink PLA on fixed MDA-MB-231 cells expressing TPM4-AcGFP, hyperosmotic condition (100 mM sorbitol for 3 min).
A further assay addresses TPM4-GFP1–10 (UniProt P67936). Description: split reporter; split-GFP system, TPM4-GFP1–10 and PFKM-GFP11 expressed in MDA-MB-231 cells, before (isosmotic) and after 100 mM sorbitol for 3 min.

Results are given in words; binding and its absence hold for the method and conditions named. For some of these results: Binding seen in cells or lysates may run through a third protein. Some entries that bind do so weakly or less than the wild type. For some of these results: Tags and fused reporters may be left off the sequences shown.

Turning to “PKM2-RA (from UniProt P14618 1-531) (enzyme)”, the binding result with TPM4-GB is recorded as “binds”.

B1: PFKM (phosphofructokinase muscle type), endogenous (enzyme, UniProt P08237 1-780)
chain: MTHEEHHAAKTLGIGKAIAVLTSGGDAQGMNAAVRAVVRVGIFTGARVFFVHEGYQGLVDGGDHIKEATWESVSMMLQLGGTVIGSARCKDFREREGRLRAAYNLVKRGITNLCVIGGDGSLTGADTFRSEWSDLLSDLQKAGKITDEEATKSSYLNIVGLVGSIDNDFCGTDMTIGTDSALHRIMEIVDAITTTAQSHQRTFVLEVMGRHCGYLALVTSLSCGADWVFIPECPPDDDWEEHLCRRLSETRTRGSRLNIIIVAEGAIDKNGKPITSEDIKNLVVKRLGYDTRVTVLGHVQRGGTPSAFDRILGSRMGVEAVMALLEGTPDTPACVVSLSGNQAVRLPLMECVQVTKDVTKAMDEKKFDEALKLRGRSFMNNWEVYKLLAHVRPPVSKSGSHTVAVMNVGAPAAGMNAAVRSTVRIGLIQGNRVLVVHDGFEGLAKGQIEEAGWSYVGGWTGQGGSKLGTKRTLPKKSFEQISANITKFNIQGLVIIGGFEAYTGGLELMEGRKQFDELCIPFVVIPATVSNNVPGSDFSVGADTALNTICTTCDRIKQSAAGTKRRVFIIETMGGYCGYLATMAGLAAGADAAYIFEEPFTIRDLQANVEHLVQKMKTTVKRGLVLRNEKCNENYTTDFIFNLYSEEGKGIFDSRKNVLGHMQQGGSPTPFDRNFATKMGAKAMNWMSGKIKESYRNGRIFANTPDSGCVLGMRKRALVFQPVAELKDQTDFEHRIPKEQWWLKLRPILKILAKYEIDLDTSDHAHLEHITRKRSGEAAV
Turning to B1, the binding result in assay [1] is “binds”.

B2: PFKM-GA (enzyme, UniProt P08237 1-780)
chain: MTHEEHHAAKTLGIGKAIAVLTSGGDAQGMNAAVRAVVRVGIFTGARVFFVHEGYQGLVDGGDHIKEATWESVSMMLQLGGTVIGSARCKDFREREGRLRAAYNLVKRGITNLCVIGGDGSLTGADTFRSEWSDLLSDLQKAGKITDEEATKSSYLNIVGLVGSIDNDFCGTDMTIGTDSALHRIMEIVDAITTTAQSHQRTFVLEVMGRHCGYLALVTSLSCGADWVFIPECPPDDDWEEHLCRRLSETRTRGSRLNIIIVAEGAIDKNGKPITSEDIKNLVVKRLGYDTRVTVLGHVQRGGTPSAFDRILGSRMGVEAVMALLEGTPDTPACVVSLSGNQAVRLPLMECVQVTKDVTKAMDEKKFDEALKLRGRSFMNNWEVYKLLAHVRPPVSKSGSHTVAVMNVGAPAAGMNAAVRSTVRIGLIQGNRVLVVHDGFEGLAKGQIEEAGWSYVGGWTGQGGSKLGTKRTLPKKSFEQISANITKFNIQGLVIIGGFEAYTGGLELMEGRKQFDELCIPFVVIPATVSNNVPGSDFSVGADTALNTICTTCDRIKQSAAGTKRRVFIIETMGGYCGYLATMAGLAAGADAAYIFEEPFTIRDLQANVEHLVQKMKTTVKRGLVLRNEKCNENYTTDFIFNLYSEEGKGIFDSRKNVLGHMQQGGSPTPFDRNFATKMGAKAMNWMSGKIKESYRNGRIFANTPDSGCVLGMRKRALVFQPVAELKDQTDFEHRIPKEQWWLKLRPILKILAKYEIDLDTSDHAHLEHITRKRSGEAAV
In the case of B2, the binding entry with TPM4-GB is on record as “binds”.

B3: PFKM-GFP11 (enzyme, UniProt P08237 1-780)
chain: MTHEEHHAAKTLGIGKAIAVLTSGGDAQGMNAAVRAVVRVGIFTGARVFFVHEGYQGLVDGGDHIKEATWESVSMMLQLGGTVIGSARCKDFREREGRLRAAYNLVKRGITNLCVIGGDGSLTGADTFRSEWSDLLSDLQKAGKITDEEATKSSYLNIVGLVGSIDNDFCGTDMTIGTDSALHRIMEIVDAITTTAQSHQRTFVLEVMGRHCGYLALVTSLSCGADWVFIPECPPDDDWEEHLCRRLSETRTRGSRLNIIIVAEGAIDKNGKPITSEDIKNLVVKRLGYDTRVTVLGHVQRGGTPSAFDRILGSRMGVEAVMALLEGTPDTPACVVSLSGNQAVRLPLMECVQVTKDVTKAMDEKKFDEALKLRGRSFMNNWEVYKLLAHVRPPVSKSGSHTVAVMNVGAPAAGMNAAVRSTVRIGLIQGNRVLVVHDGFEGLAKGQIEEAGWSYVGGWTGQGGSKLGTKRTLPKKSFEQISANITKFNIQGLVIIGGFEAYTGGLELMEGRKQFDELCIPFVVIPATVSNNVPGSDFSVGADTALNTICTTCDRIKQSAAGTKRRVFIIETMGGYCGYLATMAGLAAGADAAYIFEEPFTIRDLQANVEHLVQKMKTTVKRGLVLRNEKCNENYTTDFIFNLYSEEGKGIFDSRKNVLGHMQQGGSPTPFDRNFATKMGAKAMNWMSGKIKESYRNGRIFANTPDSGCVLGMRKRALVFQPVAELKDQTDFEHRIPKEQWWLKLRPILKILAKYEIDLDTSDHAHLEHITRKRSGEAAV
Turning to B3, in the assay with TPM4-GFP1–10, the binding entry is reported as “binds”.
